A: 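Assay of Toxoplasma gondii numbers, read through their beta-galactosidase reporter with a colour substrate. Concentration: 10 µM. The record gives no direction; the compounds picked for IC50 retests had high values, so higher reads as fewer parasites. Size under these conditions: about 67,000 compounds, about 260 of them at 50% or above in at least one test.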
B: 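Polyketide synthase Pks13, Mycobacterium tuberculosis (UniProt I6X8D2). Enzyme assay of the thioesterase domain of polyketide synthase 13; the read-out is not stated. Tested at 30 µM. The record gives no direction; the compounds picked for IC50 retests had high values, so higher reads as stronger inhibition. Of about 67,000 compounds tested this way, about 300 (0.46%) reached 50% or more in at least one test.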

By UniProt entry, the sequences of proteins in these tests, tags left out.
UniProt I6X8D2, whole entry: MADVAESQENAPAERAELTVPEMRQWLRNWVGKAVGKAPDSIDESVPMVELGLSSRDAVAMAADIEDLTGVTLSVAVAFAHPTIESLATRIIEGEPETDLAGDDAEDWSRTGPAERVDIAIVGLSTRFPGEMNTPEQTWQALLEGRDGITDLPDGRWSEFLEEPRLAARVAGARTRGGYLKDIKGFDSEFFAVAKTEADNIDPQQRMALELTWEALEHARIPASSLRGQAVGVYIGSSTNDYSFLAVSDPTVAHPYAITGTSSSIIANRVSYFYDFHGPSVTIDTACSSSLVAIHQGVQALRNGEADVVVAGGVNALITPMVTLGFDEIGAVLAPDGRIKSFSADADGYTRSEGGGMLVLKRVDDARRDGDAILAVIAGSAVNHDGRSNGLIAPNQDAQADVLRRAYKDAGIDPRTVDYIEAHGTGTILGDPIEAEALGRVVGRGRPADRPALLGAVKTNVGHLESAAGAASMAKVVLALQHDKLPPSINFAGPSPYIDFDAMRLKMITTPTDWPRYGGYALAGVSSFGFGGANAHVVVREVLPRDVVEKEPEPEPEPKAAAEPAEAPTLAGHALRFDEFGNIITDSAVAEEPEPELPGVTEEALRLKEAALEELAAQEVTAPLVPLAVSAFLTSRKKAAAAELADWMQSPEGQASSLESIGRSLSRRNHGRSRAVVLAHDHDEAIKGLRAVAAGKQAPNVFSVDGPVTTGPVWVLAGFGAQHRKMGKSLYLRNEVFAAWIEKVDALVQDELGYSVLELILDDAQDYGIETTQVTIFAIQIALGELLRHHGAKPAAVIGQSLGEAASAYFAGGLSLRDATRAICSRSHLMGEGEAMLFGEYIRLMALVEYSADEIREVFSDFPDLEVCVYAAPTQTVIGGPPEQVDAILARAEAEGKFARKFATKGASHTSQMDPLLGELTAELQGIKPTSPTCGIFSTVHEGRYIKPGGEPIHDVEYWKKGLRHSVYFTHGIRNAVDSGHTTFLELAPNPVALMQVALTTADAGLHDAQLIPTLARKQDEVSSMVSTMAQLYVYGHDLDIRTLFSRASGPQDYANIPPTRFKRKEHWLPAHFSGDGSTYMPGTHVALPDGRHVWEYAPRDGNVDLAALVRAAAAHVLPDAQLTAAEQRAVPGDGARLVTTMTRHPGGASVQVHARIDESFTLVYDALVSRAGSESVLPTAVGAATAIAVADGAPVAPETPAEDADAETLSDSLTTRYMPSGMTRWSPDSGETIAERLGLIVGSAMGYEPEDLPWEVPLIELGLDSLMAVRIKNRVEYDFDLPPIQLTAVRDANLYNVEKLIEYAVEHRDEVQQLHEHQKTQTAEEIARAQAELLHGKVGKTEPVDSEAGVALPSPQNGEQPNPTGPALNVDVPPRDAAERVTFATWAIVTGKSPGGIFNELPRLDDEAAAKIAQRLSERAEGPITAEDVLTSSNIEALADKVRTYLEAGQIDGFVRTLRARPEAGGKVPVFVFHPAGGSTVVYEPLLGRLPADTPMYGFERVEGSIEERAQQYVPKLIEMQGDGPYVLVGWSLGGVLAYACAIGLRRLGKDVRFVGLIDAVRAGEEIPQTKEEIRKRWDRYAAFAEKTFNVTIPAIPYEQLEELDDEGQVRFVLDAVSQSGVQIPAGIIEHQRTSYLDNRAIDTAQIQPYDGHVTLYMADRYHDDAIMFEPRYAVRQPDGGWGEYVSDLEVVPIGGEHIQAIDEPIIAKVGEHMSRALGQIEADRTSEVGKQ

Results are given as percent effect.
The record does not define 0% and 100%; most values in the screen are far below 50% and negative numbers occur (in some assays of this library far below -100).
Compounds were drawn at random from those tested, without regard to their results.
A dash means the value is not listed here; it may have been measured.

compound,A,B
Cc1cc(C)n(CC2CCCN2C(=O)c2ccc3c(c2)nnn3C)n1 (configuration not stated),0.3284%,-20.4%
CN(C)C(=O)C1CCc2nnc(CNC(=O)c3ccc(Cl)cc3Cl)n21 (configuration not stated),1.62%,-22.54%
CCCSCC(=O)N1CCCC2(CCC(=O)N(CCc3c[nH]cn3)C2)C1 (configuration not stated),4.641%,-15.72%
Cn1ncnc1-c1ccnc(NCc2ccccn2)n1,0.1588%,0.8845%
O=C(NCC1(c2ccc(F)cc2)CCC1)N1CCC2(CCOCC2)C1,9.971%,-
Cc1cnn(CCNCc2ccccc2C#N)c1,0.4308%,-11.23%
Cc1ncccc1CNc1ccc(OCCO)nc1,10.38%,6.872%
COc1ncc(-c2ccc(NC(C)=O)cc2)c(OC)n1,-14.6%,-16.12%
Cc1cnc(NC(=O)c2ccc(C3CCCN3CC(C)C)s2)s1 (configuration not stated),-12.06%,-19.71%
Cc1nc(O)c2nnn(C[C@H]3CCCN3C(=O)C3CCCC3)c2n1,13.94%,-13.69%
O=C(CN1CCS(=O)(=O)CC1)NCc1cccc(Br)c1,-0.05359%,-11.38%
COC(=O)c1cccc(C(=O)N2CCCC(n3cncn3)C2)c1 (configuration not stated),4.551%,-8.35%
CNC(=O)C1(c2cnccn2)CCCN1C(=O)c1ccc(F)cc1 (configuration not stated),1.094%,-0.5535%
CN(Cc1ccncc1)Cc1cnn(-c2ccc(F)cc2)c1,9.955%,-24.22%
Cc1cc(C)n(C2CN(CC(O)c3ccc(C(F)(F)F)cc3)C2)n1 (configuration not stated),-29.15%,-14.33%
c1cnc(N2CCOC3(CCCN(c4cnccn4)C3)C2)nc1 (configuration not stated),-,-25.28%
COC1CCN(c2ccc(F)cc2CN(C)C(=O)c2cc[nH]n2)CC1,13.94%,-16.64%
Cn1nc(C2CCN(C(=O)c3cnccn3)C2)cc1CCO (configuration not stated),13.43%,10.96%
Cc1cc(S(=O)(=O)Nc2cccc(I)c2)sc1C(=O)O,-5.391%,69.99%
Cc1nc(C)n(CC2CCCN2CC(=O)Nc2c(C)n[nH]c2C)n1 (configuration not stated),-8.503%,-29.37%
Fc1cccc(Cl)c1CNCc1ccccn1,11%,-18.48%
Cc1ccc(C)c2c(O)cc(CNCCNC(=O)C(C)C)nc12,2.938%,9.316%
CC(C)c1nnc(CN2C(=O)OC[C@@H]2C(C)C)o1,9.153%,-4.402%
CC(NC(=O)c1ccc2c(c1)OCC(=O)N2)c1ccccc1F (configuration not stated),-0.06277%,-12.21%
Cn1ncc2c1NC(=O)CSC2c1ccccc1Cl (configuration not stated),19.44%,2.108%
COCCNC(=O)[C@H]1C[C@@H]2CCN(Cc3ccncc3)C[C@H]2O1,-,-14.49%
[H][C@@]12CS(=O)(=O)C[C@]1([H])N(Cc1cc(OC)cc(OC)c1)CCN2CC1CC1,3.365%,-
CCOCC1CN(S(=O)(=O)N(C)C)Cc2cnn(C)c21.O=C(O)C(F)(F)F (configuration not stated),17.18%,-
CC(C)Oc1ccc(CN2CCN3CCN(C)CC3C2)cc1CO (configuration not stated),-2.833%,-20.96%
O=C(c1sccc1C1CC1)N1CCCN(Cc2cscn2)CC1,-9.019%,-17.35%
CC(=O)NCC1CCN(C(=O)NCCc2ccc3c(c2)OCO3)CC1,3.877%,-13.23%
CN(C(=O)Cn1nc(-c2ccccc2F)ccc1=O)C1CCS(=O)(=O)C1 (configuration not stated),-11.18%,-19.75%
Cc1ccc(CN(CCCN2CCOCC2)Cc2cnc(C)n2C)o1.O=C(O)CC(O)(CC(=O)O)C(=O)O,18.32%,-
CCn1nnc2c1C(COC)CN(C(=O)Cc1cccs1)C2 (configuration not stated),-9.957%,-19.69%
O=C(O)COc1ccc(Cl)cc1CN1CCC2(CCNCC2)CC1,1.187%,-36.38%
Cc1cnc(CN(C)C2CCN(CC(=O)N(C)c3nccs3)C2)o1 (configuration not stated),-,16.13%
Cc1cnn(CCNCc2ccc(F)cc2Cl)c1,4.093%,-11.15%
Cc1nnc([C@H]2CCN(CCCc3ccccc3)C2)o1,4.35%,8.459%
CC(C)(C)OC(=O)NCCC(=O)N(CCC#N)Cc1ccco1,-10.08%,0.8741%
O=C(CNC(=O)C1CC1)NCCOc1cccc(Cl)c1Cl,-4.234%,-17.73%
Cc1nc(CN2CCCCC2CCc2ccc(O)cc2)no1 (configuration not stated),-3.968%,-14.04%
Cc1nc(NC2CCN(C(=O)C3CC3)CC2)c2cnn(C)c2n1,-,3.224%
CN(CCc1cccc2ccccc12)Cc1nc(N)nc(N(C)C)n1,11.59%,-3.47%
COCC1CCCN(CCCc2cccc(OC)c2)C1 (configuration not stated),-10.9%,-18.46%
O=C(CCc1nccs1)N1CCC(C(=O)O)(c2ccccc2)CC1,-6.41%,-47.4%
Cc1cc(C(=O)N2CCCC2c2c(C)nn(C)c2C)no1 (configuration not stated),-7.078%,-13.2%
[H][C@@]12C[C@H](C(=O)Nc3cccnc3)CN(Cc3ccc(C)o3)[C@]1([H])CCO2,-5.41%,-
O=C(c1cc(Cl)c2c(c1)OCO2)N1CCCC(n2ccnc2)C1 (configuration not stated),-8.473%,-41.66%
CCCN1C(=O)C2(CCCCC2)NC1c1c[nH]nc1-c1cccnc1 (configuration not stated),-0.05359%,-21.79%
Cc1ccc(C(=O)NCCCC2(C3OCCO3)CCOCC2)cc1C,15.13%,-39.51%
CCc1ncc2c(n1)CN(CC(=O)N1CCc3sccc3C1)CC2,1.248%,10.88%
CCc1nnc2n1CCN(CC(=O)N1CCc3ccccc3C1)C2,4.567%,-30.6%
Cc1cnn(CCNCC(=O)NC(C)c2ccc3c(c2)OCCO3)c1 (configuration not stated),25.28%,-0.2994%
COCCN1CCC2(CC1)CN(C(C)=O)c1ccc(C)cc12.O=C(O)C(F)(F)F,3.163%,-
O=C(O)c1ccc(=O)n(CC(c2ccc(Cl)cc2)N2CCOCC2)c1 (configuration not stated),1.346%,-7.723%
CCc1noc(CN(C)Cc2ccc(N3CCCCC3)cc2)n1,-0.846%,8.642%
C[C@H]1CN(c2ccccn2)C[C@@]12CCN(c1cccnc1)C2=O.O=C(O)C(F)(F)F.O=C(O)C(F)(F)F,3.071%,-
CCOC(=O)C1CCN(c2nccc(-n3nc(C)cc3C)n2)CC1,-8.17%,1.316%
CCc1nnc2n1CCN(C(=O)c1cc(C)n(-c3ccccc3)c1C)C2,-0.6142%,-13.91%
COCCN1C(=O)CC[C@]12CC[C@@H](NC(=O)c1cc(C)on1)CC2,7.355%,-23.12%
O=C(c1cnccn1)N1CCCC2(CCN(Cc3ccc(F)cc3)C2)C1 (configuration not stated),-,-25.19%
O=C(O)C(F)(F)F.[H][C@@]12CCCO[C@]1([H])[C@H](NC(=O)c1cnoc1C)CN(c1ncccn1)C2,4.169%,-
CNc1[nH]nc(N)c1NC(=O)c1ccccc1,-21.19%,2.16%
CO[C@@H]1CCN(C(=O)Cc2ccsc2)[C@H]1Cc1cccnc1.O=C(O)C(F)(F)F,9.678%,-
Cc1ccc(C(=O)N2CCCCC2CNC(N)=O)cc1F (configuration not stated),-11.52%,-12.16%
O=C(c1ncoc1C1CC1)N1CCCN(CCCc2ccccc2)CC1,-4.652%,-26.6%
CCn1c(N)nc2cc(C(=O)NCCCc3ccccn3)cnc21,-27.1%,-1.655%
Cc1csc(CN2C[C@H](NC(=O)C3CCOCC3)[C@@H](C(C)C)C2)n1,-36.74%,-25.93%
CC(C)c1nnc(CN2CCCC3(CC2)CN(C)C(=O)O3)o1 (configuration not stated),-4.438%,-10.9%
CCC(O)CNC(=O)c1coc(COc2ccc3sc(C)nc3c2)n1 (configuration not stated),-8.867%,-9.034%
Cc1nn(C)c(N2CCOCC2)c1CNCc1ccnc(N(C)C)c1,-11.4%,-17.16%
Cc1ccc(C(=O)N2CC(=O)N(Cc3cccs3)CC(O)C2)cc1 (configuration not stated),3.113%,-5.68%
Cc1cc(CN2CCC(C3CCN(Cc4cccnc4)CC3)C2)[nH]n1 (configuration not stated),1.803%,-13.8%
Cc1nccc(N[C@H]2CN(C(=O)CCN3CCCC3=O)C[C@@H]2C(C)C)n1,10.31%,-12.59%
CN1CCN(c2ccccc2CNC(=O)CSC(F)(F)F)CC1,-7.99%,-20.44%
[H][C@@]12CC[C@@]([H])(C1)N(CCC(=O)N1CCN(c3cc(C)cc(C)c3)C(=O)C1)C2,-25.72%,-

Repeated from the top, 6 entries:

{"compound": "Cc1cc(C)n(CC2CCCN2C(=O)c2ccc3c(c2)nnn3C)n1", "stereo": "configuration not stated", "A": 0.3284, "B": -20.4}
{"compound": "CN(C)C(=O)C1CCc2nnc(CNC(=O)c3ccc(Cl)cc3Cl)n21", "stereo": "configuration not stated", "A": 1.62, "B": -22.54}
{"compound": "CCCSCC(=O)N1CCCC2(CCC(=O)N(CCc3c[nH]cn3)C2)C1", "stereo": "configuration not stated", "A": 4.641, "B": -15.72}
{"compound": "Cn1ncnc1-c1ccnc(NCc2ccccn2)n1", "A": 0.1588, "B": 0.8845}
{"compound": "O=C(NCC1(c2ccc(F)cc2)CCC1)N1CCC2(CCOCC2)C1", "A": 9.971}
{"compound": "Cc1cnn(CCNCc2ccccc2C#N)c1", "A": 0.4308, "B": -11.23}

Data taken from ChEMBL document CHEMBL3988442, “University of Dundee, Small-Polar-MMV Screening Library” (2021).